Experimental data taken from publication PMC4045235.
These are yes or no findings as the source states them, for the method shown. Binding seen in cells or lysates may run through a third protein. Some entries that bind do so weakly or less than the wild type.

Sequences of proteins named here, by UniProt entry; tags and fusion partners are left off.
UniProt O75147: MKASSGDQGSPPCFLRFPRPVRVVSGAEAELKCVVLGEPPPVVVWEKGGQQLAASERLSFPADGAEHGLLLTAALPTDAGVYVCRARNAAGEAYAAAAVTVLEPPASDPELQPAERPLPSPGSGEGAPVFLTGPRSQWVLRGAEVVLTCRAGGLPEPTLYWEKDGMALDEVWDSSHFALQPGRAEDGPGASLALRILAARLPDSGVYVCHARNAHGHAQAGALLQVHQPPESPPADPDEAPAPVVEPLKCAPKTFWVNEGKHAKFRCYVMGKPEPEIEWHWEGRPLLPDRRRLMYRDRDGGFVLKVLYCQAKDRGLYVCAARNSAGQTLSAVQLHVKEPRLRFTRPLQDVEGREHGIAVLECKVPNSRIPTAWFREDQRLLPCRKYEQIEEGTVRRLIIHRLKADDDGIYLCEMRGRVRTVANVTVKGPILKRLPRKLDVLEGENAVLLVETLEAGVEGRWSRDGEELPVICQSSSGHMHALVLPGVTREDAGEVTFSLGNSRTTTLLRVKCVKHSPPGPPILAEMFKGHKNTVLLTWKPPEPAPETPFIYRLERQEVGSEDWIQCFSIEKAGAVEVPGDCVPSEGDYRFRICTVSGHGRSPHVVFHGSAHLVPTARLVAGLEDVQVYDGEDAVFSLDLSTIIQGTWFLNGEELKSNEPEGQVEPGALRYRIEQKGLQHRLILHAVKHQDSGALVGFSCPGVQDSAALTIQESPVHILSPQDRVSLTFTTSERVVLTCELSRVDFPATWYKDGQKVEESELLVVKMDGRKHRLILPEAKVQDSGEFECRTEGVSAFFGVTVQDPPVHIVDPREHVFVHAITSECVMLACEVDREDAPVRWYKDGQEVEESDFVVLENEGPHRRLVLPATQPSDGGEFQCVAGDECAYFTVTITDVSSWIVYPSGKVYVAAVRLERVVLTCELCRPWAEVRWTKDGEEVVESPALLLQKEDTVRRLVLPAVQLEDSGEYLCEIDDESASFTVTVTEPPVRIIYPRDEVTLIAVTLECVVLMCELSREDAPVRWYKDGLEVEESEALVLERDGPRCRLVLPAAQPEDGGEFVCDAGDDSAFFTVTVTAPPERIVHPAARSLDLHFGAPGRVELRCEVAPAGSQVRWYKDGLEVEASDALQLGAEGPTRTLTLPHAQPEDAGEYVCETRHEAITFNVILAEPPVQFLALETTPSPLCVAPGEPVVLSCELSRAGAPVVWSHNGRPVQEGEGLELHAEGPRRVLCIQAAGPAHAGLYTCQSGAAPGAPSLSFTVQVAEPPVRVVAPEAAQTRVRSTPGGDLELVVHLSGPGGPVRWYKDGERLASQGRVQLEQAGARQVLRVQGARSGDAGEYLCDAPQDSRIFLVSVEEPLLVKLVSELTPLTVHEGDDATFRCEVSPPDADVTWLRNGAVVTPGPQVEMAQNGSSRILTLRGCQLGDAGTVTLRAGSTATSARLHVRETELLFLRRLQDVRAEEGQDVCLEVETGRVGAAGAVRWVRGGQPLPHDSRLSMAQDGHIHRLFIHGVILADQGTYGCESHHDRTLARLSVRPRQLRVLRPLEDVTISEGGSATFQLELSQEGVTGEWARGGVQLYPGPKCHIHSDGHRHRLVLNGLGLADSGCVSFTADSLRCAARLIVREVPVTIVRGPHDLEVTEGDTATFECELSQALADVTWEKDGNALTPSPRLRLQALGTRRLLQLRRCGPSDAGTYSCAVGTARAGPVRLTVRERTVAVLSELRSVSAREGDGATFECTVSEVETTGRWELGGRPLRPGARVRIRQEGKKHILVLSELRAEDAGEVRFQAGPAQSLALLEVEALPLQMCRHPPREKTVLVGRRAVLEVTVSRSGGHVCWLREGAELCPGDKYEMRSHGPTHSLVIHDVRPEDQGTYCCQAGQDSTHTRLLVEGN
UniProt Q14999: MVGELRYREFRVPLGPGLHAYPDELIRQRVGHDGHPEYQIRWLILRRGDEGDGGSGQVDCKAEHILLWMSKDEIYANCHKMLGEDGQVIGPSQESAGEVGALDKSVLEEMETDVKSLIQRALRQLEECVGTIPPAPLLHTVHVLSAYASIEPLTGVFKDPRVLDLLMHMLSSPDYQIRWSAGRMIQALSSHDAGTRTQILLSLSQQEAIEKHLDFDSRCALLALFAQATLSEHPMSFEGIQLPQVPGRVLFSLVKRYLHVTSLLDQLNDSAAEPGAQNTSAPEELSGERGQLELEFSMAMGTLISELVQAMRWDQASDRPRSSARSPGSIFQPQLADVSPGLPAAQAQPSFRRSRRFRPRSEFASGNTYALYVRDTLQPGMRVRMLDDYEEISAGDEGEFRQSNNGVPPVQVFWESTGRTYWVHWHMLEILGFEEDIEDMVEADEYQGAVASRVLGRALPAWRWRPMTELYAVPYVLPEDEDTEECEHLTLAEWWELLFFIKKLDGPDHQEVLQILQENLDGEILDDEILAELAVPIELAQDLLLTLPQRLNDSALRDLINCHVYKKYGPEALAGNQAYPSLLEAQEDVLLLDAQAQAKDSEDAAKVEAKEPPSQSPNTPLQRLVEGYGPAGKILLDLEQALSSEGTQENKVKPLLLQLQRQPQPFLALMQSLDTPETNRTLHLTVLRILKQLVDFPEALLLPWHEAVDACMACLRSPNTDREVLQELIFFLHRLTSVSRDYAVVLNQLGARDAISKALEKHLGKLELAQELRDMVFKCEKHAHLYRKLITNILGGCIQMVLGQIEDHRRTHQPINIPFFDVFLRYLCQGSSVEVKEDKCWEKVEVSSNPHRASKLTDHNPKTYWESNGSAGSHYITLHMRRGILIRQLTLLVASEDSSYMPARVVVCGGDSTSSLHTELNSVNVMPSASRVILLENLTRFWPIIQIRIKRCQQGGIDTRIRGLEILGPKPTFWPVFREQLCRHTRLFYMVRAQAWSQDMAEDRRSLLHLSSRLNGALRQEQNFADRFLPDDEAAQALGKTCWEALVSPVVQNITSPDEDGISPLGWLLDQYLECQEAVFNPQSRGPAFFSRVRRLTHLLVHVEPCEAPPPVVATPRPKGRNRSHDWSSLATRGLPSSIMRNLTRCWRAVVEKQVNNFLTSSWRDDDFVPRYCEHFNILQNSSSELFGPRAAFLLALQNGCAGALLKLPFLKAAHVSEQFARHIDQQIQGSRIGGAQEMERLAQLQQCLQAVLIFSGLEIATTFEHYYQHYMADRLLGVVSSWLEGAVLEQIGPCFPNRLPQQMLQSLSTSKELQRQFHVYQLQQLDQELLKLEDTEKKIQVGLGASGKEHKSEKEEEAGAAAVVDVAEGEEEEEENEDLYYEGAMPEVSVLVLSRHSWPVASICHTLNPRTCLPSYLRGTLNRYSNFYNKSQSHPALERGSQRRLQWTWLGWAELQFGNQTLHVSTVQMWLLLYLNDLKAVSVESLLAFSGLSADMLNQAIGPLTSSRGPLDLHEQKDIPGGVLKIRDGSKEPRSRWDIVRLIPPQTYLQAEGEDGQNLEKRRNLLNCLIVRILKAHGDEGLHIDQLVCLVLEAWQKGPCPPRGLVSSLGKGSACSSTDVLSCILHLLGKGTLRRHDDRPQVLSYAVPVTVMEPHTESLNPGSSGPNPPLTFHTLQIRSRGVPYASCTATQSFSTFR
UniProt P13010: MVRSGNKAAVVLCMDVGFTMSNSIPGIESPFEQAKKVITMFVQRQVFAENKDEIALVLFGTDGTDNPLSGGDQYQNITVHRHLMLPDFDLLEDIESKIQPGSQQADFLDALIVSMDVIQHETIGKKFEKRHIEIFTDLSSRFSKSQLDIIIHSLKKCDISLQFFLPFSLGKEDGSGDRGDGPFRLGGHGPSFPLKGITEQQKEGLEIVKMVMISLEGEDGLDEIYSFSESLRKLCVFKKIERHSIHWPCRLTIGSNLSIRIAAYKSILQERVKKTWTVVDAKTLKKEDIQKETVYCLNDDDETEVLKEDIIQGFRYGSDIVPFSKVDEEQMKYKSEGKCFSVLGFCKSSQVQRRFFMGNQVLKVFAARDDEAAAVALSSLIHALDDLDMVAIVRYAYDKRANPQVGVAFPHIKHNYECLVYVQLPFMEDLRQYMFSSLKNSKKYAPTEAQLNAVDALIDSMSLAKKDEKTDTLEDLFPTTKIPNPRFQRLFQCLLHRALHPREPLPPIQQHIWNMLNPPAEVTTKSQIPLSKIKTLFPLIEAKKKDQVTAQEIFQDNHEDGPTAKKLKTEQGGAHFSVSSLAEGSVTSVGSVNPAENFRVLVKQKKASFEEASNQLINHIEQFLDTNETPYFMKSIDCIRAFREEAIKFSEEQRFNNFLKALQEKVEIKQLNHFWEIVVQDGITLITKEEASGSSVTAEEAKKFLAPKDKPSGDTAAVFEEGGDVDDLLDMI

T1: CCDC8 (UniProt Q9H0W5)
T1 sequence: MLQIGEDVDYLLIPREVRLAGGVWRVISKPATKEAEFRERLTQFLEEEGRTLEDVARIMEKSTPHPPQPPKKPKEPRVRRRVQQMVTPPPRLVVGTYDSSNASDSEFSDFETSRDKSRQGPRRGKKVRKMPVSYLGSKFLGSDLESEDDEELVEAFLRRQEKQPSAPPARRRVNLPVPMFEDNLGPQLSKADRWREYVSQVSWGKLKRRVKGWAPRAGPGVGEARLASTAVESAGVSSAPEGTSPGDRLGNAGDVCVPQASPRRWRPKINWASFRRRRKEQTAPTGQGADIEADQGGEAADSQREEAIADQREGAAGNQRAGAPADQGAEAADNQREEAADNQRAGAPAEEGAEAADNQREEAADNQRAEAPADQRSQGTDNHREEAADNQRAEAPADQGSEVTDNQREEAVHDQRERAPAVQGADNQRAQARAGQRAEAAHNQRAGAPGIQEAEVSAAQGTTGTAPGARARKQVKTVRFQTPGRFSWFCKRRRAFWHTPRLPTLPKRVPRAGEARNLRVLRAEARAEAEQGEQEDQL


Columns and labels:
Test in all cases: co-IP; confirmatory IPs from lysates of HEK293 cells transfected with CUL7, V5-OBSL1 or CCDC8, with antibodies to CUL7, V5 or CCDC8; no antibody IP as negative control; immunoblot of endogenous partners
CCDC8 = target: T1, CCDC8
V5-OBSL1 = V5-OBSL1 (UniProt O75147)
CUL7 = CUL7 (UniProt Q14999)

Row | binding (CCDC8) | binding (V5-OBSL1) | binding (CUL7) | Molecule
1 | binds | binds |  | TP53 (from UniProt P04637 1-393)
2 | binds | binds | binds | XRCC5 (from UniProt P13010 1-732)
3 | binds | binds | binds | CCT2 (protein, UniProt P78371 1-535) MASLSLAPVNIFKAGADEERAETARLTSFIGAIAIGDLVKSTLGPKGMDKILLSSGRDASLMVTNDGATILKNIGVDNPAAKVLVDMSRVQDDEVGDGTTSVTVLAAELLREAESLIAKKIHPQTIIAGWREATKAAREALLSSAVDHGSDEVKFRQDLMNIAGTTLSSKLLTHHKDHFTKLAVEAVLRLKGSGNLEAIHIIKKLGGSLADSYLDEGFLLDKKIGVNQPKRIENAKILIANTGMDTDKIKIFGSRVRVDSTAKVAEIEHAEKEKMKEKVERILKHGINCFINRQLIYNYPEQLFGAAGVMAIEHADFAGVERLALVTGGEIASTFDHPELVKLGSCKLIEEVMIGEDKLIHFSGVALGEACTIVLRGATQQILDEAERSLHDALCVLAQTVKDSRTVYGGGCSEMLMAHAVTQLANRTPGKEAVAMESYAKALRMLPTIIADNAGYDSADLVAQLRAAHSEGNTTAGLDMREGTIGDMAILGITESFQVKRQVLLSAAEAAEVILRVDNIIKAAPRKRVPDHHPC
